Measurements reported in PubChem BioAssay AID504327 (National Center for Advancing Translational Sciences (NCATS), 2011).
Where “and” joins values, the source holds several entries; their conditions need not be identical. Equal entries are not always repeated. The campaign covered roughly 390,000 compounds. About 820 (0.21%) were called active. Inconclusive means that the source gave no clear call. Such entries were picked first, then a sample of the others. The call rests on the fitted dose curve; in most records, active means well fitted inhibition curve with a large enough effect; inconclusive means small, poorly fitted or top-dose-only effect, or another doubt; inactive means no such curve, though single readings can be large or run the other way. Potencies beside an inconclusive call are fits to weak or partial responses and may not hold up.

By UniProt entry, the sequences of proteins in these tests, tags left out.
UniProt Q92830, whole entry, looked up: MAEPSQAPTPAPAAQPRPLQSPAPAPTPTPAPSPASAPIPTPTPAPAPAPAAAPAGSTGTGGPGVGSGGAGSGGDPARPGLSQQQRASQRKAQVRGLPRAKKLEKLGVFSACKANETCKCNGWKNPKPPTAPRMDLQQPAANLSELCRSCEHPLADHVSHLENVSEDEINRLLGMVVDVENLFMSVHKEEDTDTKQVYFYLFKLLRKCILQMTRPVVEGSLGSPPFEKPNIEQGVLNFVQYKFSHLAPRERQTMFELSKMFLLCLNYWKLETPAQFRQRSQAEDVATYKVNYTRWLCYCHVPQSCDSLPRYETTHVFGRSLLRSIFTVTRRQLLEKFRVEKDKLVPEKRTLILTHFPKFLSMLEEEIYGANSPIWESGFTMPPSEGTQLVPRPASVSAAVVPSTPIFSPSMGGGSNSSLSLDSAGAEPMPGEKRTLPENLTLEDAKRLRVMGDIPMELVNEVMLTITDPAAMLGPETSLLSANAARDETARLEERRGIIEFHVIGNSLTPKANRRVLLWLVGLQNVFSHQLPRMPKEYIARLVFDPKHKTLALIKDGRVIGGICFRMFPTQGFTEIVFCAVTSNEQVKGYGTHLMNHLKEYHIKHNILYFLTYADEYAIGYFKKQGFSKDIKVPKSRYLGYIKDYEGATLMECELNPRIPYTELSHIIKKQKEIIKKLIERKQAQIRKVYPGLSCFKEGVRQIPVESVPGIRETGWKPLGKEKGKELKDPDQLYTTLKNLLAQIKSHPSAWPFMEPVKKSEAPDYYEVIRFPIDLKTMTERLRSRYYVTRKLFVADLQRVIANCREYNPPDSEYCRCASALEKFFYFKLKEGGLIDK

Target: Histone acetyltransferase KAT2A (Homo sapiens) (UniProt Q92830)
Assay: qHTS Assay for Inhibitors of GCN5L2
Conditions: GCN5L2 HAT assay, ThioGlo1 CoA-SH fluorescence; activity change, negative = inhibition: at 58.9 µM (top of the series) unless noted
Outline: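 GCN5L2 (20nM final) in 50mM HEPES, 0.1mM EDTA pH 7.5, 0.01% Tween-20 was preincubated 15 min at room temperature with compound, then given ThioGlo1 (50uM), H3(1-25) peptide (75uM) and acetyl-CoA (70uM); CoA-thiol fluorescence (Ex340/Em540) was read at 0 and 20 min.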
On the % scale 0 is the no-effect control and ±100 the full control effect; potency means the concentration at half of the fitted maximal effect.

SMILES	Potency	activity change, negative = inhibition
Cc1sc(N)nc1-c1ccc(Oc2ccccc2)cc1	inconclusive: 0.794 µM [inhibitor, single point]	
O=C(COc1ccc(S(=O)(=O)N2CCOCC2)cc1Cl)NCc1ccco1		inactive: -6.33%
COC(=O)C1C/C(=N\NS(=O)(=O)c2ccc(C)cc2)c2ccccc2C1 (stereo not drawn)	inconclusive: 3.16 µM [inhibitor, full curve, poor fit]	
Cc1ccc(-n2nc(C)c3c(C(=O)Nc4ccccc4C(F)(F)F)cc(C)nc32)cc1	inconclusive: 35.5 µM [inhibitor, single point]	
COc1ccc(NC(=O)NNC(=O)CCc2ccc(O)c(O)c2)cc1OC	inconclusive: 39.8 µM [inhibitor, single point]	
Cc1cc(NCc2ccncc2)ccc1Br	inconclusive: 17.8 µM [inhibitor, single point]	
OC(COC(c1ccc(F)cc1)c1ccc(F)cc1)CN1CCc2ccccc2C1 (stereo not drawn)	inconclusive: 5.62 µM [inhibitor, single point]	
O=C(NCC1CCCO1)/C(=C\c1cccs1)NC(=O)c1ccccc1 (stereo not drawn)	inconclusive: 7.08 µM [inhibitor, single point]	
COc1ccc(C(=O)C2CCCN(Cc3cccn3-c3nccs3)C2)cc1F (stereo not drawn)	inconclusive: 5.62 µM [inhibitor, full curve, poor fit]	
CCc1nc(SCC(=O)N2CC(=O)Nc3ccccc32)c2c(C)c(C)sc2n1		inactive: -15.7%
N#CCCn1c(SCC(=O)NCC2CCCO2)nc2ccccc21 (stereo not drawn)		inactive: -0.618%
CNC(=O)COc1coc(CN2CCN(c3ccccc3F)CC2)cc1=O	inconclusive: 39.8 µM [inhibitor, single point]	
CC1=NNC(=O)/C1=C\c1cn(-c2ccccc2)nc1-c1ccc(Cl)cc1	inconclusive: 17.8 µM [inhibitor, partial curve, poor fit]	
O=C(Nc1nnc(-c2ccccc2)o1)C1CCCN1S(=O)(=O)c1cccs1 (stereo not drawn)		inactive: 0.537%
N[C@H](C(=O)O)[C@H](O)C(=O)O	inactive and inconclusive: 35.5 µM [inhibitor, single point]	
Cc1ccc(CS(=O)(=O)Cc2ccc(C(=O)NCc3ccco3)o2)cc1	inconclusive: 39.8 µM [inhibitor, single point]	
COc1ccccc1C(=O)NCCC(=O)NCCOc1ccccc1	inconclusive: 39.8 µM [inhibitor, single point]	
COc1ccccc1/C=C/C(=O)NNC(=O)c1cccs1		inactive: 3.61%
Cc1cc(C)cc(N(CC(=O)Nc2ccc(Br)cc2)S(=O)(=O)c2c(C)[nH]c(=O)[nH]c2=O)c1	inconclusive: 0.141 µM [inhibitor, full curve, poor fit]	
O=C(N/N=C/c1cccc(OCc2ccccc2)c1)c1ccc(Br)o1	inconclusive: 0.158 µM [inhibitor, full curve]	
Cc1ccc(NC(=O)CNC(=O)c2ccco2)nc1	inconclusive: 0.708 µM [inhibitor, full curve, poor fit]	
C/C(=N\NC(N)=O)c1ccc(Cl)s1	inconclusive: 2 µM [inhibitor, partial curve]	
C=CCn1c(=O)c2c(nc3n2CC(C)CN3CCc2ccccc2)n(C)c1=O (stereo not drawn)		inactive: -5.26%

SMILES	Potency	activity change, negative = inhibition
O=c1nc(/C=C/c2ccccc2C(F)(F)F)cc(C(F)(F)F)[nH]1		inactive: -7.01%
CC(=O)c1ccc(-c2ccc(/C=C(/Sc3n[nH]c(C)n3)C(=O)O)o2)cc1	inconclusive: 25.1 µM [inhibitor, single point]	
Nc1ccc(O)c2c1C(=O)c1ccccc1C2=O	inconclusive: 14.1 µM [inhibitor, partial curve]	
Cn1c2ccccc2c(=O)c2c(=O)n(Cc3ccco3)c(COc3ccccc3)nc21	inconclusive: 12.6 µM [inhibitor, partial curve]	
CCN(c1ccccc1)S(=O)(=O)c1ccc2ccccc2c1	inconclusive: 39.8 µM [inhibitor, partial curve, poor fit]	
Cc1nn(-c2ccc(F)cc2)c(N)c1C1(O)C(=O)Nc2ccccc21 (stereo not drawn)	inconclusive: 0.794 µM [inhibitor, single point]	
N#C/C(=C(/O)c1ccc(-c2cccc([N+](=O)[O-])c2)o1)c1nc2ccccc2s1	inconclusive: 3.16 µM [inhibitor, single point]	
CC(=O)O[C@H]1CC(C)(C)C(=C=C/C(C)=C/C=C/C(C)=C/C=C/C=C(C)/C=C/C=C(\C)C(=O)C[C@@]23O[C@]2(C)C[C@@H](O)CC3(C)C)[C@](C)(O)C1		inactive: 2.09%
COC(=O)[C@H]1[C@H]2C[C@@H]3c4[nH]c5cc(OC)ccc5c4CCN3C[C@H]2C[C@@H](OC(=O)c2cc(OC)c(OC)c(OC)c2)[C@@H]1OC	inconclusive: 7.08 µM [inhibitor, single point]	
COc1cccc(C2=CC(c3ccccc3F)n3ncc(C(=O)Nc4ccc(F)cc4)c3N2)c1 (stereo not drawn)	inconclusive: 14.1 µM [inhibitor, partial curve]	
COC(=O)c1ccc(C(=S)N2CCOCC2)cc1		inactive: -0.0505%
CNS(=O)(=O)c1ccc(NC(=O)c2cc(-c3ccncc3)nc3ccc(Cl)cc23)cc1	inconclusive: 39.8 µM [inhibitor, single point]	
Cc1cccc(NS(=O)(=O)c2cn(C)c(=O)n(C)c2=O)c1C	inconclusive: 0.794 µM [inhibitor, partial curve, poor fit]	
CN(C)c1nc(-c2ccc3c(c2)OCO3)nc2ccccc12	inconclusive: 28.2 µM [inhibitor, single point]	
O=C(COC(=O)/C=C/c1ccco1)NC1CCCCC1		inactive: -1.22%
CC1CC(C)CN(S(=O)(=O)c2ccc3c(c2)NC(=O)C(C)C(=O)N3)C1 (stereo not drawn)	inconclusive: 0.891 µM [inhibitor, single point]	
Cc1cccc(NC(=O)c2cnc3sccn3c2=O)c1C	inconclusive: 3.98 µM [inhibitor, partial curve]	
Cc1cc(-n2nnc3ccccc32)nc2ccccc12		inactive: -3.42%
Cc1nn(Cc2cccc(C(=O)O)c2)c(C)c1[N+](=O)[O-]		inactive: -1.25%
CCCC1=Nc2cc(C(=O)NCCc3ccc(OCC)cc3)ccc2Sc2ccccc21		inactive: -8.03%
CCOC(=O)CNC(=O)CSc1ccc(-c2nc3ccccc3[nH]2)cn1	inconclusive: 7.08 µM [inhibitor, single point]	
COc1cccc(CN2CC(C(=O)N3CCN(c4ccc(Cl)cc4)CC3)CCC2=O)c1 (stereo not drawn)	inconclusive: 6.31 µM [inhibitor, full curve, poor fit]	
CCCCC1CCC(C(=O)N(CC(C)C)c2c(N)n(Cc3ccccc3)c(=O)[nH]c2=O)CC1 (stereo not drawn)	inconclusive: 35.5 µM [inhibitor, single point]	

Look-ups from the list.
Potency, CCOC(=O)CNC(=O)CSc1ccc(-c2nc3ccccc3[nH]2)cn1 reads inconclusive: 7.08 µM [inhibitor, single point]
activity change, negative = inhibition, CCc1nc(SCC(=O)N2CC(=O)Nc3ccccc32)c2c(C)c(C)sc2n1 reads inactive: -15.7%
activity change, negative = inhibition, CC(=O)O[C@H]1CC(C)(C)C(=C=C/C(C)=C/C=C/C(C)=C/C=C/C=C(C)/C=C/C=C(\C)C(=O)C[C@@]23O[C@]2(C)C[C@@H](O)CC3(C)C)[C@](C)(O)C1 reads inactive: 2.09%

Next part:

SMILES	Potency	activity change, negative = inhibition
COc1ccc(-c2nc3n(c(=O)c2C#N)CCS3)cc1OC	inconclusive: 8.91 µM [inhibitor, single point]	
C#CC1CN(Cc2ccccc2)CC(C#C)N1C (stereo not drawn)	inconclusive: 39.8 µM [inhibitor, single point]	
O=C(CSc1ccc2nnc(-c3cccs3)n2n1)N1CCCC1	inconclusive: 39.8 µM [inhibitor, single point]	
Clc1ccc(OCCOCCN2CCCCC2)c(Br)c1	inconclusive: 1 µM [inhibitor, partial curve, poor fit]	
CC(=O)Nc1cccc(C(=O)OCc2ccc(C(=O)Oc3ccc(Cl)cc3)cc2)c1	inconclusive: 5.01 µM [inhibitor, single point]	
COc1ccccc1CNC(=O)Cn1ncc2c(C)n(Cc3ccccc3Cl)c(C)c2c1=O	inconclusive: 39.8 µM [inhibitor, single point]	
N#CC1=C2SCN(Cc3ccco3)CN2C(=O)CC1c1ccccc1F (stereo not drawn)		inactive: -13.5%
COC(=O)c1cc2c(s1)-c1ccccc1OC2	inconclusive: 39.8 µM [inhibitor, partial curve]	
CCCCOCCCNC(=O)C1c2ccccc2Oc2ccccc21	inconclusive: 0.631 µM [inhibitor, single point]	
COc1cccc(-c2cncnc2Nc2ccc(F)cc2)c1	inconclusive: 31.6 µM [inhibitor, single point]	
CCCOc1ccc(C2C(=O)N(C3CCCCCC3)CC(=O)N2CCCOCC)cc1OC (stereo not drawn)		inactive: -1.51%
Cn1ncc(S(=O)(=O)Cc2ccccc2)c(Cl)c1=O	inconclusive: 0.794 µM [inhibitor, single point]	
COc1cccc(/C=C2\SC(=S)N(C(C(=O)O)c3ccccc3)C2=O)c1OC (stereo not drawn)		inactive: -9.13%
Cc1nc(-c2coc3cc(OCC(=O)O)ccc3c2=O)cs1	inconclusive: 0.794 µM [inhibitor, full curve, poor fit]	
O=S(=O)(Nc1cccc(-c2ccc(N3CCOCC3)nn2)c1)c1ccc(F)cc1F		inactive: -3.73%
O=C(NCc1ccco1)c1cccc2c1C(=O)c1ccc(/C=C/c3ccccc3)cc1S2(=O)=O	inconclusive: 25.1 µM [inhibitor, single point]	
COc1ccc(CNc2nc3ccccc3n2CCN2CCOCC2)cc1		inactive: -3.67%
COc1ccc(Cc2nnc(SCC(=O)N3CCN(c4ccccc4)CC3)o2)cc1		inactive: 3.14%
COc1cc(-c2nc(=S)[nH][nH]2)cc(OC)c1OC	inconclusive: 39.8 µM [inhibitor, single point]	
Cc1ccc(-c2nnn3c2nc(NCCc2ccc(S(N)(=O)=O)cc2)c2ccccc23)cc1		inactive: -2.56%
Clc1ccccc1CSc1cc2c(nn1)-c1ccccc1CC2	inconclusive: 0.708 µM [inhibitor, single point]	
CC1(C)OC(=O)N(NCc2ccccc2)C1(C)O (stereo not drawn)		inactive: -9.29%
